PubChem BioAssay AID652243, Drosophila RNAi Screening Center, 2013

Test: 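Fly genes required for human androgen receptor driven transcription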 (primary screen)
System: Drosophila S2R+ cells
Knock-down reagent: long dsRNA against Drosophila genes
Time to read-out: 72 h (48 h, then 24 h hormone)
Conditions: synthetic androgen R1881 at 10 nM for 24 h
Measured: 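Firefly light from an androgen-responsive reporter and Renilla control light per well, raw and unnormalised, for each of two replicates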
Reading the numbers: firefly reporter light: higher = more light from androgen-responsive reporter; Renilla control light: higher = more constitutive control signal (cell number, transfection)
Active means: 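Hit when the log firefly-to-Renilla ratio dropped or increased by a fixed fold versus the mean of GFP or LacZ controls across duplicate plates; lowering cut given as 1.5 and as 3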
Meaning of the calls: active = hit: reporter lowered or raised; inactive = no hit
The screen tested about 24,000 reagents; shown is a random part of those that have a named target and a result. Of all reagents, 246 (1%) were called active. 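Plates not normalised; calls are printed but the firefly/Renilla ratio behind them is not deposited; fold cut for lowering reported inconsistently.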 Raw values are not corrected between plates. The numbers tell different reagents against one gene apart. Not stated in the record: the amount of reagent.

Target gene	reagent no.	firefly reporter light, replicate 1	firefly reporter light, replicate 2	Renilla control light, replicate 1	Renilla control light, replicate 2	Call
CG10738	1	2.41e5	1.48e5	1.82e6	1.54e6	inactive
CG10738	2	8.63e5	9.66e5	1.19e6	1.06e6	inactive
CG10738	3					inactive
Vps36	1	1.80e5	1.94e5	2.41e6	2.38e6	inactive
Paf-AHalpha	1	6.25e5	6.19e5	4.25e6	2.43e6	inactive
CG33768	1	2.81e5	1.88e5	1.73e6	2.07e6	inactive
CG5863	1	1.65e5	84722	1.96e6	1.57e6	inactive
CG11147	1	1.96e5	1.73e5	1.71e6	1.38e6	inactive
Inx7	1	2.04e5	3.39e5	3.10e6	2.67e6	inactive
Inx7	2	8.01e5	6.66e5	5.72e5	4.47e5	inactive
Inx7	3	9.29e5	9.12e5	1.39e6	1.42e6	inactive
CG13159	1	6.63e5	7.07e5	1.64e6	2.01e6	inactive
CG13159	2	5.25e5	4.83e5	2.06e6	1.92e6	inactive
Mal-A4	1	2.68e5	3.32e5	1.50e6	1.38e6	inactive
Mal-A4	2	6.20e5	8.63e5	1.06e6	1.14e6	inactive
CG10395	1	8.49e5	5.92e5	1.35e6	1.39e6	inactive
CG10395	2	3.94e5	3.26e5	7.59e5	6.16e5	inactive
CG14609	1	1.46e5	1.60e5	2.39e6	1.93e6	inactive
VGlut	1	4.08e5	3.70e5	2.30e6	1.40e6	inactive
VGlut	2	6.24e5	5.45e5	3.34e6	2.91e6	inactive
I-3	1	1.60e5	1.33e5	6.80e5	5.10e5	inactive
CG5516	1	2.08e5	1.85e5	2.92e6	2.69e6	inactive
CG5516	2	6.40e5	5.39e5	4.43e5	6.28e5	inactive
CG5516	3	6.78e5	5.63e5	1.87e6	1.36e6	inactive
dec	1	3.44e5	3.74e5	3.08e6	2.59e6	inactive
dec	2	7.15e5	9.20e5	2.56e6	1.70e6	inactive
dec	3	1.05e6	5.56e5	3.07e6	1.05e6	inactive
Ifrd1	1	1.04e5	1.54e5	8.53e5	9.52e5	inactive
Ifrd1	2	1.20e5	1.01e5	1.00e6	8.13e5	inactive
Ugt302E1	1	2.60e5	2.78e5	4.14e6	4.68e6	inactive
Ugt302E1	2	5.13e5	4.25e5	1.34e6	1.34e6	inactive
RluA-2	1	9.97e5	1.06e6	1.49e6	1.69e6	inactive
CG10588	1	2.63e5	2.74e5	1.76e6	2.44e6	inactive
Mst89B	1	1.38e5	96247	1.80e6	1.88e6	inactive
Usp12-46	1	1.60e5	1.44e5	2.38e6	2.10e6	inactive
CR14798	1	2.18e5	2.47e5	4.12e6	3.39e6	inactive
HemK1	1	8.97e5	9.90e5	1.51e6	1.68e6	inactive
wtrw	1	42213	19425	2.69e5	2.52e5	inactive
wtrw	2	2.98e5	2.40e5	2.81e6	2.45e6	inactive
wtrw	3	4.92e5	3.70e5	1.37e6	1.29e6	inactive
CG7342	1	61018	86413	8.17e5	1.02e6	inactive
Srp54k	1	1.10e5	1.51e5	1.69e6	1.88e6	inactive
Rgk2	1	1.10e5	1.66e5	1.09e6	2.37e6	inactive
Rgk2	2	7.44e5	6.37e5	3.62e6	2.44e6	inactive
Rgk2	3	6.16e5	6.70e5	7.16e5	8.05e5	inactive
Rgk2	4	2.52e5	4.54e5	6.83e5	6.83e5	inactive
Cpr49Ah	1	1.69e5	1.68e5	8.51e5	1.33e6	inactive
Cpr49Ah	2	5.40e5	1.05e6	1.43e6	1.43e6	inactive
CG32192	1	4.91e5	5.00e5	9.16e5	1.31e6	inactive
CG32192	2	7.23e5	5.25e5	1.07e6	5.56e5	inactive
Rpt3R	1	1.10e5	1.49e5	2.18e6	2.49e6	inactive
Rpt3R	2	6.43e5	6.98e5	7.75e5	1.20e6	inactive
Ice2	1	77078	54562	6.34e5	4.84e5	inactive
Galphao	1	1.14e6	1.07e6	2.51e6	2.54e6	inactive
Galphao	2	5.04e5	4.60e5	1.47e6	1.26e6	inactive
CTCF	1	1.33e6	8.39e5	9.75e5	1.08e6	inactive
CTCF	2	9.03e5	9.38e5	1.49e6	1.58e6	inactive
spo	1	1.32e5	1.72e5	1.61e6	2.17e6	inactive
msl-2	1	7.11e5	9.65e5	3.78e6	2.50e6	inactive
msl-2	2	6.05e5	5.05e5	1.12e6	9.24e5	inactive
CG15260	1	1.55e5	1.68e5	1.68e6	2.14e6	inactive
Nt5a	1	6.81e5	1.17e6	1.68e6	2.40e6	inactive
CG5721	1	1.21e6	7.22e5	2.60e6	1.56e6	inactive
Rab40	1	4.06e5	4.82e5	3.84e6	3.88e6	inactive
nxf2	1	18003	23177	2.59e5	2.40e5	inactive
nxf2	2	2.76e5	2.33e5	6.95e5	7.04e5	inactive
CG40245 (retired record)	1	1.16e6	1.12e6	2.92e6	2.13e6	inactive
qvr	1	1.78e5	1.40e5	5.37e5	6.66e5	inactive
CG7810	1	1.32e6	1.23e6	2.54e6	1.93e6	inactive
CG7810	2	7.18e5	4.13e5	1.56e6	1.24e6	inactive
SPARC	1	88703	1.26e5	1.75e6	2.14e6	inactive
SPARC	2	3.63e5	3.19e5	1.04e6	9.71e5	inactive
SPARC	3	4.55e5	4.67e5	1.77e6	1.89e6	active
CG7248	1	3.11e5	2.35e5	3.76e6	2.83e6	inactive
